{"source": "patent US10053666B2", "about": "“Medium for preparing a neural cell and usage thereof” (SHENZHEN CELL INSPIRE BIOTECHNOLOGY CO., LTD., priority 2014, dated 2018)", "key": {"WI38": {"tested_on": "WI38", "assay": "Conversion of fibroblast cell line to neural cell / iOPC in neural induction medium", "assay_type": "cell-based, human", "details": "10 μM in neural induction medium", "method": "(§1) Using the same method with EXAMPLE 1, cultured fiber cell line IMR90 and WI38 with neural induction medium including 10 μM Y27632, Palomid 529, LY294002, PF562271 or rapamycin.\n(§2) In contrast, after 4 weeks in the same induction medium without ROCK inhibitor, cells kept fibroblast morphology with negative staining of O4, A2B5, and S100β (data not shown). […] To confirm conversion of fibroblasts to iOPCs by ROCK inhibitor, additional two human primary fibroblast cell lines, IMR90 and WI38, were tested using the same fibroblast—OPC conversion conditions. Consistent with the results from adult dermal cells, inventors observed 60-80% of fibroblast—OPC conversion in these two cell lines (data not shown). Next, inventors assessed whether the iOPCs could differentiate into mature oligodendrocytes. After removing growth factors and addition of thyroid hormone (a known inducer of oligodendrocyte differentiation) in cell culture medium, about 70% of the iOPCs differentiated into cells with a multiprocessed morphology typical of oligodendrocytes within 3-7 days (FIG. 2b). The oligodendrocytes expressed myelin basic protein (MBP), an integral protein component of the myelin sheath, and other defining markers of mature oligodendrocytes, including myelin-associated glycoprotein and myelin oligodendrocyte glycoprotein (FIG. 2b). Thus, inventors concluded that ROCK inhibitor-induced iOPCs can be further differentiated into mature functional oligodendrocytes."}, "IMR90": {"tested_on": "IMR90", "assay": "Conversion of fibroblast cell line to neural cell / iOPC in neural induction medium", "assay_type": "cell-based, human", "details": "10 μM in neural induction medium", "method": "as §1, §2"}}, "note": "At least one structure is not confirmed: it was looked up by name or label, or the drawing left a doubt.", "data": [{"compound": "O=c1cc(N2CCOCC2)oc2c(-c3ccccc3)cccc12", "note": "[LY294002]", "values": [{"measurement": "conversion into neural cell", "setting": "WI38", "result": "converted into neural cell"}, {"measurement": "conversion into neural cell", "setting": "IMR90", "result": "converted into neural cell"}]}, {"compound": "CO[C@H]1C[C@@H]2CC[C@@H](C)[C@@](O)(O2)C(=O)C(=O)N2CCCC[C@H]2C(=O)O[C@H]([C@H](C)C[C@@H]2CC[C@@H](O)[C@H](OC)C2)CC(=O)[C@H](C)/C=C(\\C)[C@@H](O)[C@@H](OC)C(=O)[C@H](C)C[C@H](C)/C=C/C=C/C=C/1C", "note": "[rapamycin]", "values": [{"measurement": "conversion into neural cell", "setting": "WI38", "result": "converted into neural cell"}, {"measurement": "conversion into neural cell", "setting": "IMR90", "result": "converted into neural cell"}]}]}
